According to PubChem BioAssay AID1347075 (National Center for Advancing Translational Sciences (NCATS), 2019):
The whole screen tested about 400,000 compounds, of which about 5,500 (1.4%) were called active. This list was built around the results that the source calls inconclusive (neither active nor inactive); the mix of calls is not that of the screen. Calls come from the whole dose curve; as a rule, active = well fitted cell-killing curve with a large enough effect; inconclusive = small, poorly fitted or top-dose-only effect, or effect the other way; inactive = flat fitted curve, though single readings scatter. Potencies beside an inconclusive call are fits to weak or partial responses and may not hold up.

Assay: qHTS assay for MDR1-selective chemotherapeutics: Primary screen using the parental adenocarcinoma cell KB-3-1; note: nearly all actives have a fitted effect of over 60% in size
Conditions: KB-3-1 viability, CellTiter-Glo ATP luminescence, 72 h; activity change, negative = cytotoxic: at 46.1 µM (top of the series)
Summary of the method: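 Viability of parental KB-3-1 cells, measured by CellTiter-Glo luminescence, followed a 72 h incubation at 37 °C with pinned compounds in phenol-red-free DMEM containing 10% FBS.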
% is set by controls: 0 for no effect and ±100 for the full control effect; potency is the fitted concentration of half-maximal effect.

Compound	activity change, negative = cytotoxic	Potency
CCCc1cc(=O)[nH]c(SCC(=O)NC2CCCc3ccccc32)n1 (stereo unspecified)	inactive: -2.87%	
Nc1c(-c2cccc(Cl)c2)cnc2c(-c3ccccc3)cnn12	inactive: 14%	
C=C(c1ccc2nc(NC(=O)OC)[nH]c2c1)c1cccs1		inconclusive: 4.61 µM [cytotoxic, full curve, poor fit]
Brc1ccc(-c2noc(COc3ccc4c(c3)CCC4)n2)o1	inactive: -0.875%	
CSc1nsc(NC(=O)Nc2ccccc2)n1		inconclusive: 29.1 µM [cytotoxic, single point]
COc1ccccc1N1CCN(C(=O)Cn2c(=O)n3nc(-c4cccc(F)c4)nc3c3ccccc32)CC1	inactive: 12.4%	
CCCCN(CC)CCNC(=O)C1CCN(S(=O)(=O)c2cccc3nsnc23)CC1		inconclusive: 5.17 µM [cytotoxic, full curve, poor fit]
CC(=O)Nc1cccc(Oc2nc(C(F)(F)F)nc3ccccc23)c1	inactive: 6.61%	
N[C@@H](Cc1cc(I)c(Oc2ccc(O)c(I)c2)c(I)c1)C(=O)O		inconclusive: 0.0146 µM [rising, full curve]
O=C(c1ccc(CS(=O)Cc2ccc(Cl)cc2)o1)N1CCN(c2ccccn2)CC1 (stereo unspecified)	inactive: -0.668%	
CCOc1ccc(NC(=S)N(CCCN2CCOCC2)Cc2cn(C)c3ccccc23)cc1		inconclusive: 16.4 µM [rising, single point]
CC1CC2C3CCC4=CC(=O)CCC4(C)C3CCC2(C)C1(O)C(=O)CO (stereo unspecified)	inactive: -8.48%	
CC(C(=O)Nc1ccc(O)cc1)c1cccc(C(=O)c2ccccc2)c1 (stereo unspecified)		inconclusive: 20.6 µM [cytotoxic, partial curve]
O=C(COc1ccccc1)Nc1nnc(-c2ccc(Cl)cc2)o1	inactive: -8.38%	
Cc1cc(C)c2c(n1)sc1c(=O)n(-c3ccccc3C(F)(F)F)nnc12		inconclusive: 20.6 µM [cytotoxic, single point]
COCCOC(=O)c1[nH]c2c(c1C)C(=O)CC(c1ccco1)C2 (stereo unspecified)		active: 1.16 µM
CCSc1nc2c([nH]c3ccccc32)c(=O)n1-c1ccc(F)cc1	inactive: 9.66%	
CCCCCCCCCCCC[n+]1ccc(/C=C/c2c[nH]c3ccccc23)c2ccccc21		inconclusive: 20.6 µM [cytotoxic, single point]
Cc1ccccc1NS(=O)(=O)c1ccc(C(=O)NCC(c2ccccc2)N(C)C)cc1 (stereo unspecified)	inactive: 6.29%	
CC(=O)N1c2ccc(S(=O)(=O)N3CCC(C(=O)Nc4cccc(Cl)c4)CC3)cc2CC1C (stereo unspecified)		inconclusive: 0.92 µM [cytotoxic, full curve, poor fit]
Cc1cc(=O)oc2c(C(=O)/C=C\c3cccs3)c(O)ccc12		inconclusive: 20.6 µM [cytotoxic, single point]

Full records, quoted from the list:
`COc1ccccc1N1CCN(C(=O)Cn2c(=O)n3nc(-c4cccc(F)c4)nc3c3ccccc32)CC1` in the list: activity change, negative = cytotoxic: inactive: 12.4%
`O=C(c1ccc(CS(=O)Cc2ccc(Cl)cc2)o1)N1CCN(c2ccccn2)CC1` (stereo unspecified) in the list: activity change, negative = cytotoxic: inactive: -0.668%
